In article PMC10073093, “TGFBI remodels adipose metabolism by regulating the Notch-1 signaling pathway” (Experimental & Molecular Medicine, 2023) one finds binding data, which are given here for one molecule.

The chains behind the UniProt entries cited, without tags or fusion partners. Residues count along the entry.
UniProt Q01705, residues 19-2531: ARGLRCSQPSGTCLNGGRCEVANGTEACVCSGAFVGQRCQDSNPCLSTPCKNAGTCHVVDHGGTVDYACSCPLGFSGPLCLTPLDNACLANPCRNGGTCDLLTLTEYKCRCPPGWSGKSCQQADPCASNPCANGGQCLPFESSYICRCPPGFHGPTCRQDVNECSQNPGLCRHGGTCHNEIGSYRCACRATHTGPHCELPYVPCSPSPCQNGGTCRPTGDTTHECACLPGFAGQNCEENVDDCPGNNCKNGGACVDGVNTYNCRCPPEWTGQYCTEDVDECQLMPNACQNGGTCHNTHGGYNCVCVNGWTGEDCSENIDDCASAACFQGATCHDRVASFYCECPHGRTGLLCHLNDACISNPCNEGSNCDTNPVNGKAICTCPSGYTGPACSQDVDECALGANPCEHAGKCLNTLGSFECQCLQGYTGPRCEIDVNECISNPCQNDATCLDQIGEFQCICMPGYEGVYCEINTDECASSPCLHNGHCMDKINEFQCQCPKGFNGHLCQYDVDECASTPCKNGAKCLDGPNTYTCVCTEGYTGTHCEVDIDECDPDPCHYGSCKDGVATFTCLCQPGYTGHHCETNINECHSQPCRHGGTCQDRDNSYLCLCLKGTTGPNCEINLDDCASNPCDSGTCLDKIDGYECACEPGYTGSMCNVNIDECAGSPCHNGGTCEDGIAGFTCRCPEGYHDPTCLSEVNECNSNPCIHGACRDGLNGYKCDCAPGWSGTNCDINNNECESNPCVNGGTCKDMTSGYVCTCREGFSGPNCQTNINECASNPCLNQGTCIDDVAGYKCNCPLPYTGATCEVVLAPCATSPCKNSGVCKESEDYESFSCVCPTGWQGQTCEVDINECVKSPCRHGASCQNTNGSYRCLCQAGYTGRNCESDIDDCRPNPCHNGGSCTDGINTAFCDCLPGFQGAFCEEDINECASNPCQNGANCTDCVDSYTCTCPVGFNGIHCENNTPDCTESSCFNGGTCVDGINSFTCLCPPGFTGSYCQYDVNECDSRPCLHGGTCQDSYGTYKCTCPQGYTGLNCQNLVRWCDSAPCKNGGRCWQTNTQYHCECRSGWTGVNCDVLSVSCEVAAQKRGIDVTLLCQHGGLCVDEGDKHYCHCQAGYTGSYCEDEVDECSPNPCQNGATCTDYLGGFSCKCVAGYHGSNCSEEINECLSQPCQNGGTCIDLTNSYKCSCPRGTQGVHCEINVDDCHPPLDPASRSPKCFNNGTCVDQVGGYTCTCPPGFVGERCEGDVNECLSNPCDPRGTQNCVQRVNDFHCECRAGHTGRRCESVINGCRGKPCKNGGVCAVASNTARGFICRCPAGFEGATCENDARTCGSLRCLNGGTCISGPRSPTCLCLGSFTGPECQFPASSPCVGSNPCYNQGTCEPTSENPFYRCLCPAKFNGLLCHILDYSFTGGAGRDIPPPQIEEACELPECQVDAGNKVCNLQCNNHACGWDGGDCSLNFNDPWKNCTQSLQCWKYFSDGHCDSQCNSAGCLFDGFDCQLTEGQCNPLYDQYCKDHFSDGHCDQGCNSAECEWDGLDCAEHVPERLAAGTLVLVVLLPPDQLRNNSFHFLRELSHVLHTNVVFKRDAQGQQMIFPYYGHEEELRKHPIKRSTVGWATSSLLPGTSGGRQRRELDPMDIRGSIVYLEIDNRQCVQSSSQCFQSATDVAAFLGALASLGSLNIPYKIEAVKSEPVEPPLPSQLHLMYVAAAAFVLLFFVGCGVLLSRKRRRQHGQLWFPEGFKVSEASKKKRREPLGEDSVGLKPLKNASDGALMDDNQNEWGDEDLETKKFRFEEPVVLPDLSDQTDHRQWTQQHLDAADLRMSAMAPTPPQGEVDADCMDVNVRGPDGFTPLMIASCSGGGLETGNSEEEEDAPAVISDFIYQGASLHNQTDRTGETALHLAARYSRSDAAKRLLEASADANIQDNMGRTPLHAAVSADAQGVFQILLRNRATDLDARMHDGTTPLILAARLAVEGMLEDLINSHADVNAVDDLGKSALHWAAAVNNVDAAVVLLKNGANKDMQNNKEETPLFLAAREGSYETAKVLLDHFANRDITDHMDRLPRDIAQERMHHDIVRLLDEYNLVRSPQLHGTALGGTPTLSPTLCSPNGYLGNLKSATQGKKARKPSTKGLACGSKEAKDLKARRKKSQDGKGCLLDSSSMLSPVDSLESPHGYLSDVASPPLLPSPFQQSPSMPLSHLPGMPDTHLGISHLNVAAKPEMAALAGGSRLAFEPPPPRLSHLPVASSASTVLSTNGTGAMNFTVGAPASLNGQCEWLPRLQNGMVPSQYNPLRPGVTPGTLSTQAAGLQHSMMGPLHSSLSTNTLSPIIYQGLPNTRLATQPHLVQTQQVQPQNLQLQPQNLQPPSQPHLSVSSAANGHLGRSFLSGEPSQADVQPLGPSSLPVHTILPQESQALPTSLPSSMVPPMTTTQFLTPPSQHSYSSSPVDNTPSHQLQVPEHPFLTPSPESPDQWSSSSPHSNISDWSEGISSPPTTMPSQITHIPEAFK

These are yes or no findings as the source states them, for the method shown. In cells and extracts the contact can be indirect. Some entries that bind do so weakly or less than the wild type.

The assay has as its target Notch-1 (endogenous in 3T3-L1 cells) (mouse (endogenous in 3T3-L1)) (UniProt Q01705). Kind of assay: co-IP; 3T3-L1 preadipocytes treated with recombinant TGFBI (20 µg/ml) for 24 h; RIPA buffer with 10 mM N-ethylmaleimide; primary antibody overnight at 4 °C, Protein G agarose beads; western blot; only the binder purified.

B1: Recombinant TGFBI (transforming growth factor-beta-induced protein) (protein, UniProt Q15582 24-683)
chain: GPAKSPYQLVLQHSRLRGRQHGPNVCAVQKVIGTNRKYFTNCKQWYQRKICGKSTVISYECCPGYEKVPGEKGCPAALPLSNLYETLGVVGSTTTQLYTDRTEKLRPEMEGPGSFTIFAPSNEAWASLPAEVLDSLVSNVNIELLNALRYHMVGRRVLTDELKHGMTLTSMYQNSNIQIHHYPNGIVTVNCARLLKADHHATNGVVHLIDKVISTITNNIQQIIEIEDTFETLRAAVAASGLNTMLEGNGQYTLLAPTNEAFEKIPSETLNRILGDPEALRDLLNNHILKSAMCAEAIVAGLSVETLEGTTLEVGCSGDMLTINGKAIISNKDILATNGVIHYIDELLIPDSAKTLFELAAESDVSTAIDLFRQAGLGNHLSGSERLTLLAPLNSVFKDGTPPIDAHTRNLLRNHIIKDQLASKYLYHGQTLETLGGKKLRVFVYRNSLCIENSCIAAHDKRGRYGTLFTMDRVLTPPMGTVMDVLKGDNRFSMLVAAIQSAGLTETLNREGVYTVFAPTNEAFRALPPRERSRLLGDAKELANILKYHIGDEILVSGGIGALVRLKSLQGDKLEVSLKNNVVSVNKEPVAEPDIMATNGVVHVITNVLQPPANRPQERGDELADSALEIFKQASAFSRASQRSVRLAPVYQKLLERMKH
On to B1, for which the binding entry is “binds”.
